US20150322001A1, “OMEGA-3 ANALOGUES” (The University of Sydney, priority 2012, published 2015)
Some of these results come from one statement about several compounds together.

Tested on: MDA-MB-231 cells
Experiment: Matrigel assay, migration of MDA-MB-231 cells out of matrigel droplets
Format: cell-based, human
Conditions: FIG. 3
Protocol: This supports the finding that these compounds are effective against metastatic cancer cells.
• 1. Cell culture and cell treatment: Breast cancer MDA-MB-231 cells were maintained in monolayers at 37° C. in DMEM containing penicillin and streptomycin, L-glutamine and 10% fetal bovine serum in an atmosphere of 95% air and 5% CO2. Cells were seeded into multi-well plates at 5×10^4 cells/mL; media was replaced 24 h later with fresh serum-free DMEM containing one of the test compounds in DMSO. DMSO was added to control cells at a final concentration of 0.1%. • 2. MTT assay: MDA-MB-231 cells were seeded in 96 well plates (0.2 mL/well), treated with compounds at 0.01, 0.1, 0.5, 1, 5 and 10 μM for 24 h. MTT (25 μL of 2.5 mg/mL solution) was added to each well for 2 h, after which MTT and media were removed. The blue formazan product formed from MTT by live cells was dissolved in DMSO (100 μL/well) and quantified spectrophotometrically at 540 nm in a multilabel counter. IC50s were calculated using GraphPad Prism (Prism 5.01). • 3. Caspase 3 activity: MDA-MB-231 cells were seeded in 96 well plates (0.2 mL/well), and were treated with compounds at 0.1, 0.5 and 1 μM for 24 h. Caspase 3 activity was quantified using the Caspase-Glo 3/7 assay kit according to manufacturer's protocol (Promega). Briefly, after 24 h treatment, fresh serum-free media was added to wells. Cells were equilibrated at room temperature for 30 min, caspase 3/7 substrate in lysis buffer was added and the luminescence was measured. Relative caspase 3/7 activity was calculated as [(luminescence in treatment−luminescence in control)/luminescence in control×100%]. • 4. Annexin V assay: MDA-MB-231 cells were seeded in 6 well plates (3 mL/well), and were treated with compounds at 0.1, 0.5 and 1 μM for 24 h. The apoptotic cells were quantified by Annexin V staining according to the manufacture's protocol (BD Biosciences). Briefly, after 24 h treatment, the media and harvested cells were collected, followed by PBS washes. Cells were stained with Annexin V and PI in binding buffer for 15 min at room temperature and quantified by flow cytometry (BD Biosciences). The apoptotic cells (%) were calculated as [(Annexin V positive cells in treatment−Annexin V positive cells in control)/Annexin V positive cells in control×100%]. • 5. […] Cells that migrated out of droplets were scored using phase-contrast microscopy and digital image analysis (Olympus). • 6. […] RNA samples were treated with DNase (Promega) and gene expression was quantified using an Express Onestep Superscript qRT-PCT kit (Invitrogen) and gene-specific primers: heparanase (forward) […] and (reverse) GCAGCAACTTTGGCATTTC, integrin-α3 (forward) […] and (reverse) […], actin (forward) […] and (reverse) […]. […]

## CCOC(=O)CCCCCCCCCCCCCCCNC(=O)Nc1ccc(Cl)cc1 [Compound 13, Ethyl 16-{[(4-chlorophenyl)carbamoyl]amino}hexadecanoate]
  migration of MDA-MB-231 cells out of matrigel droplets: able to prevent the migration

## Cc1ccc(NC(=O)NCCCCCCCCCCCCCCCC(=O)O)cc1 [Compound 16, 16-{[(4-methylphenyl)carbamoyl]amino}hexadecanoic acid]
  migration of MDA-MB-231 cells out of matrigel droplets: able to prevent the migration

## O=C(O)CCCCCCCCCCCCCCCNC(=O)Nc1ccc(Cl)cc1 [Compound 14, 16-{[(4-chlorophenyl)carbamoyl]amino}hexadecanoic acid]
  migration of MDA-MB-231 cells out of matrigel droplets: able to prevent the migration

## CCOC(=O)CCCCCCCCCCCCCCCNC(=O)Nc1ccc(C)cc1 [Compound 15, Ethyl 16-{[(4-methylphenyl)carbamoyl]amino}hexadecanoate]
  migration of MDA-MB-231 cells out of matrigel droplets: able to prevent the migration
